No constants are given. Whether binding was seen depends on the method and setting. In cells and extracts the contact can be indirect. Some entries that bind do so weakly or less than the wild type.
Biological target: APP, endogenous in mouse primary neuronal cultures (mouse (endogenous in primary cortical neurons)) (UniProt P12023)
Assay: proximity ligation; Duolink PLA with anti-talin1 (97H6) and anti-APP C-terminal antibodies in fixed, permeabilised mouse primary neuronal cultures, with Homer staining as synaptic marker

Sequences of proteins named here, by UniProt entry; tags and fusion partners are left off. Residues count along the entry.
UniProt P12023, residues 18-770: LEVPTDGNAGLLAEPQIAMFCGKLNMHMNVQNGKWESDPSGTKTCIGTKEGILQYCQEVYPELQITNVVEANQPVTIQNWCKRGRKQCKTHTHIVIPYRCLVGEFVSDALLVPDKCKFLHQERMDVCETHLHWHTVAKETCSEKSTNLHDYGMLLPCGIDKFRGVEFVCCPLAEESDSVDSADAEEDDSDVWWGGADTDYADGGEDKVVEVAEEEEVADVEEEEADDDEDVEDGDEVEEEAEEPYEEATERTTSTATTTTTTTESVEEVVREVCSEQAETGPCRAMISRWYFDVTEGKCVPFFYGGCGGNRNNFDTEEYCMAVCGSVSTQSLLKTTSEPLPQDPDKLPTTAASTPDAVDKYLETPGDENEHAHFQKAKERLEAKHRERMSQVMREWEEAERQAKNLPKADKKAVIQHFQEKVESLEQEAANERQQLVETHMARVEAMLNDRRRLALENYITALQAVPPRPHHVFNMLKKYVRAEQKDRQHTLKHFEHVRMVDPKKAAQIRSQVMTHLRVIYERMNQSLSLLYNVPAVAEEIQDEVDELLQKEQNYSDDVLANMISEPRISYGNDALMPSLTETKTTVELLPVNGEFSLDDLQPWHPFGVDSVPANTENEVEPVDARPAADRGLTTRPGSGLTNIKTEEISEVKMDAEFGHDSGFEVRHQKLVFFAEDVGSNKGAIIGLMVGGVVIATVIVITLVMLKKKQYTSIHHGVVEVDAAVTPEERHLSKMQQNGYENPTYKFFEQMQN
UniProt P26039: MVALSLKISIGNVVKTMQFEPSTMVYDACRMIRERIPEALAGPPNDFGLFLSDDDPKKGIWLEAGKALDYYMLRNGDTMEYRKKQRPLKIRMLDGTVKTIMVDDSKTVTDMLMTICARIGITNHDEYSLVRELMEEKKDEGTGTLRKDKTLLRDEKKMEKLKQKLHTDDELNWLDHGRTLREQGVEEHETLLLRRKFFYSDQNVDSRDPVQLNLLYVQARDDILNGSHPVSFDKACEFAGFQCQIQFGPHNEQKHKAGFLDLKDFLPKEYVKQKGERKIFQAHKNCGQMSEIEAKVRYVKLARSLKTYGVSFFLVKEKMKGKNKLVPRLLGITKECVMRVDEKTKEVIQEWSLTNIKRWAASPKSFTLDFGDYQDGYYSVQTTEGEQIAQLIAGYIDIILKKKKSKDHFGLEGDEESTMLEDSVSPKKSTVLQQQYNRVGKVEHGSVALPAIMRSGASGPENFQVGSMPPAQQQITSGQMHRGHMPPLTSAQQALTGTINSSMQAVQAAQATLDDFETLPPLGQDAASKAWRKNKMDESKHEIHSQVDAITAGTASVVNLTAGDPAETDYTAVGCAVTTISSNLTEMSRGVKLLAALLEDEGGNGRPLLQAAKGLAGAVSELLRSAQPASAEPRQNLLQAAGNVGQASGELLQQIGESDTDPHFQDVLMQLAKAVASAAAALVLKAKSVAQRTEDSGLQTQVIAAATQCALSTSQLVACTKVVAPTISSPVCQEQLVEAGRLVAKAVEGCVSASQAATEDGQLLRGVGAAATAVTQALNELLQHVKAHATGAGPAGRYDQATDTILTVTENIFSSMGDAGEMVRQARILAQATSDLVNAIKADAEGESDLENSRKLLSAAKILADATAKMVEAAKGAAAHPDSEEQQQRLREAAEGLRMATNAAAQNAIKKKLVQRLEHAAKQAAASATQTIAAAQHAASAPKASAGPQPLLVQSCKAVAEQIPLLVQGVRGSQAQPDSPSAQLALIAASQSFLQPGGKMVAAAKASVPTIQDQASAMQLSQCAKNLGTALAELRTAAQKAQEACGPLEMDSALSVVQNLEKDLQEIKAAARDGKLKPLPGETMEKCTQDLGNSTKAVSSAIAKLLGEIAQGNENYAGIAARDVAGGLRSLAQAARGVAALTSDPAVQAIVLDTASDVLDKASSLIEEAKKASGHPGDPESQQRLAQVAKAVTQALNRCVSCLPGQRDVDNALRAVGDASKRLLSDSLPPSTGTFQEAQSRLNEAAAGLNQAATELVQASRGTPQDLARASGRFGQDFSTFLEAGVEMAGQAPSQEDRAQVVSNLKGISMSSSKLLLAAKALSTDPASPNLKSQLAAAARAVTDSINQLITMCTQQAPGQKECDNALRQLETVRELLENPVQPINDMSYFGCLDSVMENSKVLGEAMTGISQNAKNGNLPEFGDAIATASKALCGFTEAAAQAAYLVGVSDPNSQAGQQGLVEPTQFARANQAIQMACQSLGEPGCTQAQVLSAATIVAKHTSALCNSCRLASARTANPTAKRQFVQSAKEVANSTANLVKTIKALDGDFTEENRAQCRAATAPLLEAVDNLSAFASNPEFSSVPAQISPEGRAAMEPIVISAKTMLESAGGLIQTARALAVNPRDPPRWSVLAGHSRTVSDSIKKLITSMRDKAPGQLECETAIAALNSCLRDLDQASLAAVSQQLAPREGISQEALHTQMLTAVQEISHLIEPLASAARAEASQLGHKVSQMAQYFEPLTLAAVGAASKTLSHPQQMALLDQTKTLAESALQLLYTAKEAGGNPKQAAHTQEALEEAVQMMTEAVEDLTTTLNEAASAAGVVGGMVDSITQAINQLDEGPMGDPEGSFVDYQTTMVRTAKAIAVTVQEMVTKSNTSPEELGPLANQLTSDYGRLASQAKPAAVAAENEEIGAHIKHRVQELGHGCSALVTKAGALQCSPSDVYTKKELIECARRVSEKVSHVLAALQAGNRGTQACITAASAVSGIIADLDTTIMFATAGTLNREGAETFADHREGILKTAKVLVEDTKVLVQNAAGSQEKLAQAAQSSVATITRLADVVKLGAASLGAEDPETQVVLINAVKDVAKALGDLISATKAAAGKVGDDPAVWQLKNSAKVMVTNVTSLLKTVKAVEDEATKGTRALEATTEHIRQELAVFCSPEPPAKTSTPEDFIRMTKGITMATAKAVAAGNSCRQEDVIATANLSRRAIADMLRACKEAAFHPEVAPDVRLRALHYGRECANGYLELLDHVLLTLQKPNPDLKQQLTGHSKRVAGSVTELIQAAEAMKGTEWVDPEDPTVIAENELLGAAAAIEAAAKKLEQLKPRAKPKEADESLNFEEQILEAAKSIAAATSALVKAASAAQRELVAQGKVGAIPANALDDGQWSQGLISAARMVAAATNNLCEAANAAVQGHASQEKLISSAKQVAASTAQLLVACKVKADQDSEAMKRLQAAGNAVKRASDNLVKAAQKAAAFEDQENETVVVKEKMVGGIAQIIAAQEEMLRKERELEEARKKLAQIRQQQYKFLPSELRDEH

Substance: talin1, endogenous in mouse primary neuronal cultures (from UniProt P26039 1-2541)
- binding: binds

Reference: paper PMC11597407
